# Data as given in PubChem BioAssay AID330 (DTP/NCI, 2004).
# The list does not hold the whole screen: it is rich in T/C values a quarter to a half above the control, in often repeated tests (any T/C) and in doses without a T/C. Other doses and runs of a compound stand elsewhere. T/C gives the treated animals as a percentage of the vehicle group. Some entries give survivors of the animals treated and no T/C: the source holds a T/C of zero for them, seemingly a mark for toxic or unscored doses. Some survivor counts are full or nearly so, which does not show that the dose was tolerated: survival well below the control is almost never listed, so the zero probably covers shortened survival too. Counts of survivors are from the toxicity check (mostly the fifth day) where no day follows; animals may have died later. Schedule codes are those of the source, read here as Q, the interval in days (D) or hours (H), X, the number of doses. Some entries hold several experiments; their values stand side by side, smallest first. Some molecules as drawn cover several salts, stereoisomers or complexes of the source; a dose is that of the sample tested. Where survival is the endpoint, the PubChem record calls one and a half times the control and up active, and a quarter to a half above the control has no call in these data; cut-offs in other NCI protocols can differ. Some T/C values are followed by the survivors on the day toxicity was checked, most often the fifth; without a count, all were alive then.
# System: P388 leukemia ip, CD2F1 mice, survival T/C
# Experiment: NCI In Vivo Anticancer Drug Screen. Data for tumor model P388 Leukemia (intraperitoneal) in CD2F1 (CDF1) mice
# Details: T/C endpoint: median survival time, higher T/C = longer survival
# [1] = dose: 200.0 mg/kg/injection, schedule: Q04DX003 (ip), vehicle: Klucel (hydroxypropylcellulose) (HPC)
# [2] = dose: 400.0 mg/kg/injection, schedule: Q04DX003 (ip), vehicle: Klucel (hydroxypropylcellulose) (HPC)
# [3] = dose: 50.0 mg/kg/injection, schedule: Q01DX005 (ip), vehicle: Klucel (hydroxypropylcellulose) (HPC)
# [4] = dose: 100.0 mg/kg/injection, schedule: Q01DX005 (ip), vehicle: Klucel (hydroxypropylcellulose) (HPC)
# [5] = dose: 200.0 mg/kg/injection, schedule: Q01DX005 (ip), vehicle: Klucel (hydroxypropylcellulose) (HPC)
# [6] = dose: 25.0 mg/kg/injection, schedule: Q01DX009 (ip), vehicle: saline
# [7] = dose: 50.0 mg/kg/injection, schedule: Q01DX009 (ip), vehicle: saline with Tween-80
# [8] = dose: 100.0 mg/kg/injection, schedule: Q01DX009 (ip), vehicle: saline with Tween-80
# [9] = dose: 200.0 mg/kg/injection, schedule: Q01DX009 (ip), vehicle: saline with Tween-80
# [10] = dose: 50.0 mg/kg/injection, schedule: Q04DX003 (ip), vehicle: Klucel (hydroxypropylcellulose) (HPC)
# [11] = dose: 100.0 mg/kg/injection, schedule: Q04DX003 (ip), vehicle: Klucel (hydroxypropylcellulose) (HPC)
# [12] = dose: 240.0 mg/kg/injection, schedule: Q01DX005 (ip), vehicle: saline with Tween-80
# [13] = dose: 200.0 mg/kg/injection, schedule: Q01DX005 (ip), vehicle: saline with Tween-80
# [14] = dose: 200.0 mg/kg/injection, schedule: Q01DX009 (ip), vehicle: saline
# [15] = dose: 100.0 mg/kg/injection, schedule: Q01DX009 (ip), vehicle: saline
compound,measurement,setting,value
NC1(c2ccccc2)C2CC3CC(C2)CC1C3 (stereo not drawn),survivor count,[1],1 of 6
same,survivor count,[2],0 of 6
CCCCCCC1N=C(N)N=C(N)N1c1ccc(Cl)cc1 (stereo not drawn),survivor count,[3],3 of 5
same,survivor count,[4],4 of 5
same,survivor count,[5],0 of 5
C=CC(=NC(C)(C)C)Nc1ccccc1OC,T/C,"dose: 12.5 mg/kg/injection, schedule: Q01DX009 (ip), vehicle: saline","95, 99 [4 of 6 alive], 99 [5 of 6 alive], 118 % of control"
same,survivor count,[6],0 of 6
same,survivor count,[3],0 of 5
same,survivor count,[7],0 of 6
same,survivor count,"dose: 50.0 mg/kg/injection, schedule: Q01DX009 (ip), vehicle: saline",0 of 6
same,survivor count,[4],0 of 5
same,survivor count,[8],0 of 6
same,survivor count,[5],0 of 5
same,survivor count,[9],0 of 6
Cc1ccc(-c2c(C)c3c(c(C)c2-c2ccc(C)cc2)-c2ccccc2C3=O)cc1,survivor count,"dose: 400.0 mg/kg/injection, schedule: Q04DX002 (ip), vehicle: saline",2 of 6
COc1ccc(-c2nc3c(=O)n(C)c(=O)nc-3n(C)n2)cc1OC,survivor count,"dose: 25.0 mg/kg/injection, schedule: Q04DX003 (ip), vehicle: Klucel (hydroxypropylcellulose) (HPC)",3 of 6
same,survivor count,[10],1 of 6
same,survivor count,[11],0 of 6 and 1 of 6
same,survivor count,[1],0 of 6
same,survivor count,[2],1 of 6
COc1cccc(CN2CCCNCC2)c1,survivor count,"dose: 100.0 mg/kg/injection, schedule: Q01DX009 (ip), vehicle: water",3 of 6
Cc1cccc(C(=O)N2C(=O)Cc3ccccc32)c1,survivor count,"dose: 400.0 mg/kg/injection, schedule: Q01DX001 (ip), vehicle: Klucel (hydroxypropylcellulose) (HPC)",6 of 6
CN(C)c1ccc(N=O)cc1,survivor count,"dose: 0.78 mg/kg/injection, schedule: Q01DX009 (ip), vehicle: saline",6 of 6
Cc1ccc(NC(=O)C#N)cc1,survivor count,"dose: 60.0 mg/kg/injection, schedule: Q01DX005 (ip), vehicle: saline with Tween-80",0 of 6
same,survivor count,"dose: 120.0 mg/kg/injection, schedule: Q01DX005 (ip), vehicle: saline with Tween-80",0 of 6
same,survivor count,[12],0 of 6
O=C(O)CCCSC(=S)c1ccccc1,survivor count,"dose: 100.0 mg/kg/injection, schedule: Q01DX009 (ip), vehicle: Klucel (hydroxypropylcellulose) (HPC)",6 of 6
C/C(=N\NC(=S)N1CCC(C)CC1)c1ncccn1,survivor count,[10],6 of 6
same,survivor count,[11],0 of 6
same,survivor count,[1],0 of 6
same,survivor count,[2],0 of 6
NC(N)=NS(=O)(=O)c1ccc(N=c2c3ccccc3n(Cc3ccccc3)c3ccccc23)cc1,survivor count,[13],2 of 6
C=CCC1C/C=C\COC(=O)CC(C)(C)CC1=O (stereo not drawn),survivor count,"dose: 200.0 mg/kg/injection, schedule: Q04DX003 (ip), vehicle: saline",6 of 6
N/C(=C\c1nc2ccccc2nc1-c1ccccc1)c1ccccc1Cl,survivor count,"dose: 240.0 mg/kg/injection, schedule: Q01DX005 (ip), vehicle: Klucel (hydroxypropylcellulose) (HPC)",6 of 6
Cc1cc(=O)oc2cc(OC(=O)Nc3ccc(Cl)c(Cl)c3)ccc12,survivor count,"dose: 6.25 mg/kg/injection, schedule: Q01DX009 (ip), vehicle: saline",6 of 6
same,survivor count,[6],6 of 6
same,survivor count,[7],6 of 6
same,survivor count,[8],6 of 6
same,survivor count,[9],5 of 6
CN=C(c1ccc(NC(=O)c2cccc(C(=O)Nc3ccc(C(=NC)N(C)C4CCCCC4)cc3)c2)cc1)N(C)C1CCCCC1,survivor count,"dose: 6.25 mg/kg/injection, schedule: Q01DX005 (ip), vehicle: Klucel (hydroxypropylcellulose) (HPC)",0 of 6
same,survivor count,"dose: 6.25 mg/kg/injection, schedule: Q01DX005 (ip), vehicle: saline",1 of 6
same,survivor count,"dose: 12.5 mg/kg/injection, schedule: Q01DX005 (ip), vehicle: saline",0 of 6
same,survivor count,"dose: 25.0 mg/kg/injection, schedule: Q01DX005 (ip), vehicle: saline",0 of 6
same,survivor count,"dose: 50.0 mg/kg/injection, schedule: Q01DX005 (ip), vehicle: saline",0 of 6
same,survivor count,"dose: 100.0 mg/kg/injection, schedule: Q01DX005 (ip), vehicle: saline",0 of 6
same,survivor count,"dose: 200.0 mg/kg/injection, schedule: Q01DX005 (ip), vehicle: saline",0 of 6
CCOC(=O)NNc1cccc(Cl)c1,survivor count,[14],1 of 6
same,survivor count,"dose: 400.0 mg/kg/injection, schedule: Q01DX009 (ip), vehicle: saline",0 of 6
CCOC(=O)CC1CC(=O)C(C(=O)OCC)C=C1C(=O)OCC (stereo not drawn),survivor count,[13],1 of 5
CCN(CC)CCCNc1ccc([N+](=O)[O-])c2no[n+]([O-])c12,survivor count,[14],0 of 6
CSc1nc(COC(=O)NC(C)C)c(COC(=O)NC(C)C)n1-c1ccccc1,survivor count,"dose: 50.0 mg/kg/injection, schedule: Q01DX005 (ip), vehicle: Klucel + Tween-80",6 of 6
same,survivor count,"dose: 100.0 mg/kg/injection, schedule: Q01DX005 (ip), vehicle: Klucel + Tween-80",6 of 6
Nc1nnc(N)n1-n1c(N)nnc1N,survivor count,"dose: 120.0 mg/kg/injection, schedule: Q01DX005 (ip), vehicle: saline",2 of 6
same,survivor count,"dose: 240.0 mg/kg/injection, schedule: Q01DX005 (ip), vehicle: saline",0 of 6
C=C(CSc1ccc(C(=O)O)c([N+](=O)[O-])c1)c1ccc([N+](=O)[O-])cc1,survivor count,[15],6 of 6
same,survivor count,[14],6 of 6
N#CC(NCc1ccccc1)c1ccccc1 (stereo not drawn),survivor count,[12],0 of 6
O=[N+]([O-])c1ncccc1NCCN1CCCC1,survivor count,[15],1 of 6
same,survivor count,[14],0 of 6
COc1cc(N(CCCl)CCCl)ccc1NC(=O)c1ccccc1,T/C,"dose: 25.0 mg/kg/injection, schedule: Q04DX003 (ip), vehicle: saline sonified",136 % of control
same,T/C,"dose: 25.0 mg/kg/injection, schedule: Q04DX003 (ip), vehicle: saline with Tween-80",131 % of control
same,survivor count,"dose: 100.0 mg/kg/injection, schedule: Q04DX003 (ip), vehicle: saline with Tween-80",0 of 6
same,survivor count,"dose: 200.0 mg/kg/injection, schedule: Q04DX003 (ip), vehicle: saline with Tween-80",0 of 6
same,survivor count,"dose: 400.0 mg/kg/injection, schedule: Q04DX003 (ip), vehicle: saline with Tween-80",0 of 6
Cc1cc(C)c(F)[c]([Hg][Br])c1N,survivor count,"dose: 3.12 mg/kg/injection, schedule: Q01DX005 (ip), vehicle: Klucel (hydroxypropylcellulose) (HPC)",6 of 6
same,survivor count,"dose: 12.5 mg/kg/injection, schedule: Q01DX005 (ip), vehicle: Klucel (hydroxypropylcellulose) (HPC)",2 of 6
same,survivor count,"dose: 25.0 mg/kg/injection, schedule: Q01DX005 (ip), vehicle: Klucel (hydroxypropylcellulose) (HPC)",0 of 6
CCOP(=O)(O)C1CCCC(C)[N-]1.CCOP(=O)(O)C1CCCC(C)[N-]1.[Mn+2] (stereo not drawn),survivor count,[2],1 of 6
CN1CCCC1=O,survivor count,[15],6 of 6
same,survivor count,[14],6 of 6
CN(C)C1C(O)C2Oc3c(cc(O)c4c3C(=O)c3cc5c(c(O)c3C4=O)C(OCCN)CC(C)(O)C5)C(C)(O2)C1O (stereo not drawn),T/C,"dose: 80.0 mg/kg/injection, schedule: Q01DX009 (ip), vehicle: other",142 % of control
same,survivor count,"dose: 160.0 mg/kg/injection, schedule: Q01DX009 (ip), vehicle: other",1 of 6
CC(Nc1ccc(Br)cc1[N+](=O)[O-])C(=O)O (stereo not drawn),T/C,[8],136 % of control
